# From article PMC4180030
# The chains behind the UniProt entries cited, without tags or fusion partners.
# UniProt Q8DIQ1: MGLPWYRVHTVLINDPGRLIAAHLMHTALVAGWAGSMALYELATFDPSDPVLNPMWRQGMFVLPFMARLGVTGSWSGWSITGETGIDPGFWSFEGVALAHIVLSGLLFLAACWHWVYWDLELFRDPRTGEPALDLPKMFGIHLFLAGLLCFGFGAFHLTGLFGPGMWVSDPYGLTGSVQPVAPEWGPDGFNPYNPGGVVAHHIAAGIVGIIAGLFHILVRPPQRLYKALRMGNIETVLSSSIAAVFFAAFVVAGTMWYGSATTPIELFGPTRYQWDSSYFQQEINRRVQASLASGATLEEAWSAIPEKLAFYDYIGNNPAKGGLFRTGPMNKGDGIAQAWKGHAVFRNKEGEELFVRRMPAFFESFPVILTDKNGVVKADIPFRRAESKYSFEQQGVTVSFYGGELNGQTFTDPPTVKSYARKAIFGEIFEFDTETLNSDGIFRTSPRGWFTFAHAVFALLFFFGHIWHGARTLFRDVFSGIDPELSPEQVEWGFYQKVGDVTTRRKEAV
# No constants are given. Whether binding was seen depends on the method and setting. For some of these results: In cells and extracts the contact can be indirect. Some results given as binding are weak or reduced against the parent protein; the word gives no strength.
# Columns and labels:
# [1] = molecular target: His-tagged CP43 of T. elongatus (Thermosynechococcus elongatus) (UniProt Q8DIF8); test: pull-down; beta-DDM-solubilised thylakoid membrane extract of the CP43-His strain bound to cobalt resin (buffer A, pH 6.0, 4 °C, 2 h), four washes, elution with 100 mM imidazole, immunoblotting; non-tagged WT extract and resin lacking Co as controls
# [2] = molecular target: His6-tagged CP47 of T. elongatus (Thermosynechococcus elongatus) (UniProt Q8DIQ1); test: co-purification by Ni-affinity and anion-exchange chromatography, immunoblotting; dimeric His-tagged PSII complexes from the CP47-His strain (Nowaczyk et al. 2006, modified), beta-DDM extract on Ni resin, elution with 100 mM histidine, then UNO Q-12 column
Binder,binding [1],binding [2]
"CyanoQ (Tll2057) from Thermosynechococcus elongatus (protein, UniProt Q8DHA2 24-152) CGGPSATTPPPPTYSELQITRIQDYLRDIEKNAERFADLEVSVAKGDWQEARNIMRGPLGEMLMDMRALNRNLLAKDQPTPTALTRALTDDFLKIDQGADLDSVTVAQEGFREAEADFKAYLNSLPELS",binds,binds
"Psb27 of T. elongatus (protein, UniProt Q8DG60 22-134) CANVPTGLTGNFREDTLALISSLREAIALPENDPNKKAAQAEARKKLNDFFALYRRDDSLRSLSSFMTMQTALNSLAGHYSSYPNRPLPEKLKARLEQEFKQVELALDREAKS",binds,–
"CyanoP (PsbP homologue) of T. elongatus (protein, UniProt Q8DH84 20-183) CSATSGLQAYVDSYDGYEFLYPRGWVQVQVEDPVDVVFHDIIETTENVSVVVNTVASTKSLEELGSPEEVGDRLLRNIIAPSESGRSSALIAATSQKADDKTYYILEYAVTLPGDGNTAQQRHNLSSIAVSRGKVYTLSVSAPEERWPKVEDQFKTIVSSFTVY",binds weakly,–
